These are yes or no findings as the source states them, for the method shown. Binding seen in cells or lysates may run through a third protein. Some entries that bind do so weakly or less than the wild type. Tags and fused reporters may be left off the sequences shown.
Biological target: T1, GST-ICAT (Inhibitor of Catenin and TCF) (UniProt Q9NSA3)
T1 sequence: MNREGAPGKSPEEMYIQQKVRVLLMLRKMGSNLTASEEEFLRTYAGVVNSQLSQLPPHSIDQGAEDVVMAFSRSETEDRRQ
Test: pull-down

B1: β-catenin (protein, UniProt Q9WU82 1-781)
chain: MATQADLMELDMAMEPDRKAAVSHWQQQSYLDSGIHSGATTTAPSLSGKGNPEEEDVDTSQVLYEWEQGFSQSFTQEQVADIDGQYAMTRAQRVRAAMFPETLDEGMQIPSTQFDAAHPTNVQRLAEPSQMLKHAVVNLINYQDDAELATRAIPELTKLLNDEDQVVVNKAAVMVHQLSKKEASRHAIMRSPQMVSAIVRTMQNTNDVETARCTAGTLHNLSHHREGLLAIFKSGGIPALVKMLGSPVDSVLFYAITTLHNLLLHQEGAKMAVRLAGGLQKMVALLNKTNVKFLAITTDCLQILAYGNQESKLIILASGGPQALVNIMRTYTYEKLLWTTSRVLKVLSVCSSNKPAIVEAGGMQALGPHLTDPSQRLVQNCLWTLRNLSDAATKQEGMEGLLGTLVQLLGSDDINVVTCAAGILSNLTCNNYKNKMMVCQVGGIEALVRTVLRAGDREDITEPAICALRHLTSRHQEAEMAQNAVRLHYGLPVVVKLLHPPSHWPLIKATVGLIRNLALCPANHAPLREQGAIPRLVQLLVRAHQDTQRRTSMGGTQQQFVEGVRMEEIVEGCTGALHILARDVHNRIVIRGLNTIPLFVQLLYSPIENIQRVAAGVLCELAQDKEAAEAIEAEGATAPLTELLHSRNEGVATYAAAVLFRMSEDKPQDYKKRLSVELTSSLFRTEPMAWNETADLGLDIGAQGEALGYRQDDPSYRSFHSGGYGQDALGMDPMMEHEMGGHHPGADYPVDGLPDLGHAQDLMDGLPPGDSNQLAWFDTDL
For B1, the binding was “binds”.

From paper doi:10.1101/2022.01.12.475264
